Some of the results follow. Construct or isoform of the protein are uncertain.
What follows are sequences tested against T1, ELF2 (UniProt Q15723) (assay: DAPPL (digital affinity profiling via proximity ligation, sequencing)). Conditions: 10 mM Tris-HCl pH 7.5, 50 mM NaCl, 1 mM DTT, 4% glycerol, room temperature, 30 min; GST-TFs on glutathione beads, 16-mer random dsDNA library, 0.1% …; high values mean tight binding; double strand, one strand shown; scale: fold enrichment (6-mer frequency, TF over GST control).
T1 sequence: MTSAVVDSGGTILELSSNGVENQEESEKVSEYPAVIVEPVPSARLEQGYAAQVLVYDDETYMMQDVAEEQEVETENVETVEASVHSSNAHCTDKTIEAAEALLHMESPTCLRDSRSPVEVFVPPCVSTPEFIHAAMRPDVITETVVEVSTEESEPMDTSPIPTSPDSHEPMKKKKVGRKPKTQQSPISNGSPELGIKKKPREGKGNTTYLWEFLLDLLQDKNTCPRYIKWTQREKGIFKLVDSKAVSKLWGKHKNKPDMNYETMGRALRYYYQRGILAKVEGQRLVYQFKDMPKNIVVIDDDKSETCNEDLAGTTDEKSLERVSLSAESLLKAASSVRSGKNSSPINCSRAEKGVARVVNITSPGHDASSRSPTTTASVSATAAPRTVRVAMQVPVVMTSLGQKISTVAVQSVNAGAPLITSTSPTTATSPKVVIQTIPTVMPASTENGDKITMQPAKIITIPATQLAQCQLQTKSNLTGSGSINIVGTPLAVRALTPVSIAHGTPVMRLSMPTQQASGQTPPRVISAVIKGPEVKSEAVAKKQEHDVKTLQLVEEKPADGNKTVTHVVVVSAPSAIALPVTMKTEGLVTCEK
AGAGAA gave a binding signal of 0.812.
Sequence GCATTT has a binding signal of 1.45.
AAGATC was tested, and the binding signal was 1.03.
TTTTTT gave a binding signal of 1.22.
In the case of GTTGCT, the binding signal is reported as 1.28.
With CTACTG the binding signal was 1.21.
For AATCCG, the binding signal was 1.73.
Work on CTAGAA yielded a binding signal of 1.
With CTAGCC the binding signal was 0.974.
AATCAC was tested, and the binding signal was 1.08.
ATTCTC gave a binding signal of 1.3.
TCCCGT showed a binding signal of 1.34.
With GCATTA the binding signal was 0.844.
ATCAAA gave a binding signal of 1.
TACGCA was tested, and the binding signal was 1.12.
CCCTTC was tested, and the binding signal was 1.58.
For CTGAAC, the binding signal was 1.34.
CTTCTC showed a binding signal of 1.3.
TTCTGG showed a binding signal of 1.22.
For AATTAA, the binding signal was 1.29.
CTAACA showed a binding signal of 1.16.
CTAACC was tested, and the binding signal was 1.14.
In the case of TATGAT, the binding signal is reported as 1.15.
CTTCAC showed a binding signal of 1.35.
TCCATA was tested, and the binding signal was 1.27.
GTAATC showed a binding signal of 1.09.
ATAGTT was tested, and the binding signal was 1.25.
With CAGAAG the binding signal was 0.739.
For CTACGC, the binding signal was 1.41.
GATAAG gave a binding signal of 0.923.
TTGTGT showed a binding signal of 1.14.
CTCGGT was tested, and the binding signal was 1.03.
Work on GCGATC yielded a binding signal of 0.935.
TTCTAT showed a binding signal of 1.33.
TCTGTG gave a binding signal of 1.07.
Work on CTTTAT yielded a binding signal of 1.19.
With AGTAAT the binding signal was 1.16.
CCCATA gave a binding signal of 1.21.
In the case of GTCTCC, the binding signal is reported as 1.34.
Sequence AGATGC has a binding signal of 1.02.

Reference: PMC7862700
